Results are given in words; binding and its absence hold for the method and conditions named. In cells and extracts the contact can be indirect. These calls come from enrichment with a bait or labelling near it, and not all partners need be listed. Sequences can lack the tags named with a protein.
Target: T1, GFP-tagged Phafin2 (UniProt Q9H8W4)
T1 sequence: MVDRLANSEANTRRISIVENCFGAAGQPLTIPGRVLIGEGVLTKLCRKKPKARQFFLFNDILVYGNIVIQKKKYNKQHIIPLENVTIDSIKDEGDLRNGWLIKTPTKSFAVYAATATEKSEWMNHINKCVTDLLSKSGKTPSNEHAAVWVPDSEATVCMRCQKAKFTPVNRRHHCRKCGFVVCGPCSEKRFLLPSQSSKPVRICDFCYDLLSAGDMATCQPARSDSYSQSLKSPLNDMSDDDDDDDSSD
Test: affinity purification with mass spectrometry

By UniProt entry, the sequences of proteins in these tests, tags left out.
UniProt P21333: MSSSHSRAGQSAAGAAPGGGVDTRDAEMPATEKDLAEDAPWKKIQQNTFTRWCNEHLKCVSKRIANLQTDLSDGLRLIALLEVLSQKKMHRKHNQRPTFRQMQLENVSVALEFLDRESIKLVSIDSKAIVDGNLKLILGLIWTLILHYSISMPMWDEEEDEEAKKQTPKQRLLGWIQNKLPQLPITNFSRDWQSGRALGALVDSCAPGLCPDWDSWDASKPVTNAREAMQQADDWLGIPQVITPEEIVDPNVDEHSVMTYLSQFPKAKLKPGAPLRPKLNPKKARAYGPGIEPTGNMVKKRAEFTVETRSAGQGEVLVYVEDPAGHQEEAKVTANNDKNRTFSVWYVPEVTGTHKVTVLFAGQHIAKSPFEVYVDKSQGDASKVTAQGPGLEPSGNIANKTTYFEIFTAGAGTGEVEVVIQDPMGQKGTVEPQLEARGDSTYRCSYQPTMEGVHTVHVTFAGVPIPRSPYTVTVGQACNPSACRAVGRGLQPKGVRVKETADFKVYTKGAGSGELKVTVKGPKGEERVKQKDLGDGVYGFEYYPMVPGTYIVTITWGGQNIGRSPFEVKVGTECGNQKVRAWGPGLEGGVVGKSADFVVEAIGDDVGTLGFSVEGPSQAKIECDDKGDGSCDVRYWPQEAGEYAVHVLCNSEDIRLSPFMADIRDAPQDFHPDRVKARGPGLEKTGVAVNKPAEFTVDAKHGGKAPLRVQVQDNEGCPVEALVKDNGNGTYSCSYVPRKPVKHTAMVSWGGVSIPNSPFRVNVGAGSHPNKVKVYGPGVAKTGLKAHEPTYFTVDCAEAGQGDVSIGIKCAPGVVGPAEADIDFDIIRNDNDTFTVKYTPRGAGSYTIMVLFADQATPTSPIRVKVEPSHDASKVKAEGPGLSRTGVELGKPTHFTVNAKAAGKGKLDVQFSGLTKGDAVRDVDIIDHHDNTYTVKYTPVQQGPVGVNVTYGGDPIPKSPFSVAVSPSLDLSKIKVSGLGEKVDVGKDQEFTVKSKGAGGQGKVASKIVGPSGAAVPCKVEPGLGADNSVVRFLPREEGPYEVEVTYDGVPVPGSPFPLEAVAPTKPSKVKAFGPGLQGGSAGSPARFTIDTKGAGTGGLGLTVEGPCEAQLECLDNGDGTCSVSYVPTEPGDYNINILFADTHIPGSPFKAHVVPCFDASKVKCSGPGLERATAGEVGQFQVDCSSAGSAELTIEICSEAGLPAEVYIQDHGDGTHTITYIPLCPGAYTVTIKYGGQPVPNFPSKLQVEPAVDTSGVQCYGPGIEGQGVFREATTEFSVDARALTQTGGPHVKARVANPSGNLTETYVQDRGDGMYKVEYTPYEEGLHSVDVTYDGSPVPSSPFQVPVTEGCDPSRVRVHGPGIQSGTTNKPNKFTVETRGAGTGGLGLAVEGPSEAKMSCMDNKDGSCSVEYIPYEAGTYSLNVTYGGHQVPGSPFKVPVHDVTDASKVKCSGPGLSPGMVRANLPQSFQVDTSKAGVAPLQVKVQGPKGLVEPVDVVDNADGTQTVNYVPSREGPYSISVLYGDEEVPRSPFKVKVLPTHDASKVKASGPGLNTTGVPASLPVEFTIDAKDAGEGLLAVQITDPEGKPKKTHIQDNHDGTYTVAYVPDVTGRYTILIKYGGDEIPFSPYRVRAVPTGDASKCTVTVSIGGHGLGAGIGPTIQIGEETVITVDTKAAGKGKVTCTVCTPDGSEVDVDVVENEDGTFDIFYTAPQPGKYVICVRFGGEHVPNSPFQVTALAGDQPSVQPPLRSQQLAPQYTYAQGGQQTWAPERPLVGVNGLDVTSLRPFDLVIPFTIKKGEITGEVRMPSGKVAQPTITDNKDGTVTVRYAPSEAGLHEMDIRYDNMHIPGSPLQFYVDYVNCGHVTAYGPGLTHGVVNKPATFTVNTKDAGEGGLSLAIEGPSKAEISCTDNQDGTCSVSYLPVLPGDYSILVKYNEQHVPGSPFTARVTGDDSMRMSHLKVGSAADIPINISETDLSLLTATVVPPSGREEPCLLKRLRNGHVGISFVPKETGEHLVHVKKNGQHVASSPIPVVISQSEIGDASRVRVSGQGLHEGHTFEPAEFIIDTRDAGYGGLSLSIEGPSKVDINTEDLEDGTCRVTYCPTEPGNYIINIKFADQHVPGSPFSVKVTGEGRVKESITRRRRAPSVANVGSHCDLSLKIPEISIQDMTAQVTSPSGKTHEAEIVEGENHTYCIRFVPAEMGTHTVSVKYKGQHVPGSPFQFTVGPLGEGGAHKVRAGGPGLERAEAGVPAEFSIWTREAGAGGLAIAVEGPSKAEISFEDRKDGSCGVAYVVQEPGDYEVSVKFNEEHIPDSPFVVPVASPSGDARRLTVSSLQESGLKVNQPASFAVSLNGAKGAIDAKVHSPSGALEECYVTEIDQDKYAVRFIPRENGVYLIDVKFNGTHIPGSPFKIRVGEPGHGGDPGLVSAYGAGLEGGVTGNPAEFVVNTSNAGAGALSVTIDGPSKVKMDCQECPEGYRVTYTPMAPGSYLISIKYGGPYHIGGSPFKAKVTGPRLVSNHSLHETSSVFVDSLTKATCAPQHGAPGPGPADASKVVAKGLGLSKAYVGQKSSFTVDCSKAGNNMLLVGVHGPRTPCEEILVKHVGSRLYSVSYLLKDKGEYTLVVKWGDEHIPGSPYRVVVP

Substance: Filamin A (endogenous) (from UniProt P21333 1-2647)
- binding: binds

Source: publication doi:10.1101/180760
